Experimental data taken from PMC10182610.
These are yes or no findings as the source states them, for the method shown. Binding seen in cells or lysates may run through a third protein. Some binding calls cover weakened binding; strength is not graded here.

The chains behind the UniProt entries cited, without tags or fusion partners. Where a name states a change or a piece, a line headed by the entry shows the natural chain unless it says otherwise.
UniProt Q15386: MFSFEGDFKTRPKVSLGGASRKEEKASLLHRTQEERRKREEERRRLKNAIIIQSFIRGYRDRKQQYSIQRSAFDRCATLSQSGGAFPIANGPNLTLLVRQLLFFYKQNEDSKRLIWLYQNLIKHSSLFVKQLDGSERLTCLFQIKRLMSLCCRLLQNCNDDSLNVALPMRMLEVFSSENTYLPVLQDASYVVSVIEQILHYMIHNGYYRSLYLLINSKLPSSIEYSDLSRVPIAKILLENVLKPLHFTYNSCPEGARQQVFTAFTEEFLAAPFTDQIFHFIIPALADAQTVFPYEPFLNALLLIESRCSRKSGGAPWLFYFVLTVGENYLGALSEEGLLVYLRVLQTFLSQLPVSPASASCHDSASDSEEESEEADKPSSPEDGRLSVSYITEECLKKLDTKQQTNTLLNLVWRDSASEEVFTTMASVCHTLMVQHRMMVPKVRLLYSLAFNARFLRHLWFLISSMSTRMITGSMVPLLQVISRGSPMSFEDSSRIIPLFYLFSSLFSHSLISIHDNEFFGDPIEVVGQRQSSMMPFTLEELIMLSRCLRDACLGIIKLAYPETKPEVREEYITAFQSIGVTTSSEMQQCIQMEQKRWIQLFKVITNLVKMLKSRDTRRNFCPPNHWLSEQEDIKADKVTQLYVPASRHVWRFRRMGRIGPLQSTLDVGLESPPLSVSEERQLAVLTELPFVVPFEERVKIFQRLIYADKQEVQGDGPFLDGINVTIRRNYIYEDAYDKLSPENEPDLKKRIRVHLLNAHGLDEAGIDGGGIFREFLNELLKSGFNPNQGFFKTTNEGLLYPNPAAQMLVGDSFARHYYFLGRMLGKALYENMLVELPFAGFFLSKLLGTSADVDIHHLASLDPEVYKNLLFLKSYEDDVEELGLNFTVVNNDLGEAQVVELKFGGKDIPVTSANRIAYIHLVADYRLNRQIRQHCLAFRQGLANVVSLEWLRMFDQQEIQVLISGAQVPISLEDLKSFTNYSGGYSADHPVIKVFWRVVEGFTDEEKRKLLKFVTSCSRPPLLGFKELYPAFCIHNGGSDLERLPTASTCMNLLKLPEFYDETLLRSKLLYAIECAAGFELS

Target: ubiquitin protein ligase E3C (UBE3C) (human (endogenous in breast cancer cell lines)) (UniProt Q15386)
Test: co-IP; immunoprecipitation with anti-UBE3C from cell lysate, TP73 detected by Western blot; cells not named

binding: binds
B1: tumor protein p73 (TP73) (protein, UniProt O15350 1-636)
chain: MAQSTATSPDGGTTFEHLWSSLEPDSTYFDLPQSSRGNNEVVGGTDSSMDVFHLEGMTTSVMAQFNLLSSTMDQMSSRAASASPYTPEHAASVPTHSPYAQPSSTFDTMSPAPVIPSNTDYPGPHHFEVTFQQSSTAKSATWTYSPLLKKLYCQIAKTCPIQIKVSTPPPPGTAIRAMPVYKKAEHVTDVVKRCPNHELGRDFNEGQSAPASHLIRVEGNNLSQYVDDPVTGRQSVVVPYEPPQVGTEFTTILYNFMCNSSCVGGMNRRPILIIITLEMRDGQVLGRRSFEGRICACPGRDRKADEDHYREQQALNESSAKNGAASKRAFKQSPPAVPALGAGVKKRRHGDEDTYYLQVRGRENFEILMKLKESLELMELVPQPLVDSYRQQQQLLQRPSHLQPPSYGPVLSPMNKVHGGMNKLPSVNQLVGQPPPHSSAATPNLGPVGPGMLNNHGHAVPANGEMSSSHSAQSMVSGSHCTPPPPYHADPSLVSFLTGLGCPNCIEYFTSQGLQSIYHLQNLTIEDLGALKIPEQYRMTIWRGLQDLKQGHDYSTAQQLLRSSNAATISIGGSGELQRQRVMEAVHFRVRHTITIPNRGGPGGGPDEWADFGFDLPDCKARKQPIKEEFTEAEIH
